Test results as given in PubChem BioAssay AID222 (DTP/NCI, 2004).
The list shows only some results of the screen, not a fair sample: it is rich in T/C values a quarter to a half above the control, in often repeated tests (any T/C) and in doses without a T/C. Other doses and runs of a compound stand elsewhere. T/C: endpoint of the treated group in % of that of the vehicle group. Some entries give survivors of the animals treated and no T/C: the source holds a T/C of zero for them, seemingly a mark for toxic or unscored doses. Some doses without a T/C left all or most animals alive at the check, yet need not have been tolerated: survival well below the control is almost never listed, so the zero probably covers shortened survival too. Counts of survivors are from the toxicity check (mostly the fifth day) where no day follows; animals may have died later. Schedule codes are those of the source, taken here to give the interval after Q, in days (D) or hours (H), and the number of doses after X. Marks such as (2×) say how often a value occurs here. Some entries hold several experiments; their values stand side by side, smallest first. Where survival is the endpoint, this PubChem deposit counts one and a half times the control or more as active, and values a quarter to a half above the control carry no call in these data; other NCI protocols may use other cut-offs. Some T/C values are followed by the survivors on the day toxicity was checked, most often the fifth; without a count, all were alive then.

System: C57BL/6 mice, intracerebral ependymoblastoma, median survival T/C
Experiment: NCI In Vivo Anticancer Drug Screen. Data for tumor model Ependymoblastoma (intracerebral) in C57BL/6 mice
Conditions: T/C endpoint: median survival time, higher T/C = longer survival
Protocol: The antitumor activity of compounds was measured in mice bearing transplantable tumors. Survival or tumor size were measured and the results are expressed as the measurement made in the treated group (T) divided by the measurement made in the vehicle treated control group (C). The tumor model used in this assay is Ependymoblastoma (intracerebral) in C57BL/6 mice

[1] = dose: 8.0 mg/kg/injection, schedule: Q01DX005 (ip), vehicle: Klucel (hydroxypropylcellulose) (HPC)
[2] = dose: 16.0 mg/kg/injection, schedule: Q01DX005 (ip), vehicle: Klucel (hydroxypropylcellulose) (HPC)
[3] = dose: 16.0 mg/kg/injection, schedule: Q01DX005 (ip), vehicle: saline
[4] = dose: 64.0 mg/kg/injection, schedule: Q01DX005 (ip), vehicle: saline
[5] = dose: 10.0 mg/kg/injection, schedule: Q01DX001 (ip), vehicle: Klucel (hydroxypropylcellulose) (HPC)
[6] = dose: 20.0 mg/kg/injection, schedule: Q01DX001 (ip), vehicle: Klucel (hydroxypropylcellulose) (HPC)
[7] = dose: 40.0 mg/kg/injection, schedule: Q01DX001 (ip), vehicle: Klucel (hydroxypropylcellulose) (HPC)
[8] = dose: 160.0 mg/kg/injection, schedule: Q01DX001 (ip), vehicle: Klucel (hydroxypropylcellulose) (HPC)
[9] = dose: 320.0 mg/kg/injection, schedule: Q01DX001 (ip), vehicle: Klucel (hydroxypropylcellulose) (HPC)

In the case of `O=CC(NC(=O)N(CCCl)N=O)C(O)C(O)C(O)CO` (stereo unspecified), the T/C (dose: 0.25 mg/kg/injection, schedule: Q01DX005 (ip), vehicle: saline, evaluated on day 45) is reported as 94 [9 of 10 alive] and 98 % of control, the T/C (dose: 0.25 mg/kg/injection, schedule: Q01DX005 (ip), vehicle: saline, evaluated on day 60) is reported as 95 and 108 % of control and the T/C (dose: 0.5 mg/kg/injection, schedule: Q01DX005 (ip), vehicle: saline, evaluated on day 45) is reported as 97 and 103 % of control. The T/C (dose: 0.5 mg/kg/injection, schedule: Q01DX005 (ip), vehicle: saline, evaluated on day 60) was 101 and 103 % of control, the T/C (dose: 1.0 mg/kg/injection, schedule: Q01DX005 (ip), vehicle: Klucel (hydroxypropylcellulose) (HPC)) was 101, 104 [9 of 10 alive], 105, 112 % of control and the T/C (dose: 1.0 mg/kg/injection, schedule: Q01DX005 (ip), vehicle: saline, evaluated on day 45) was 88 and 103 % of control. For the same compound, the T/C (dose: 1.0 mg/kg/injection, schedule: Q01DX005 (ip), vehicle: saline, evaluated on day 60) was 105 and 112 % of control, the T/C (dose: 2.0 mg/kg/injection, schedule: Q01DX005 (ip), vehicle: Klucel (hydroxypropylcellulose) (HPC)) was 103 [6 of 9 alive], 110, 111, 117 % of control and the T/C (dose: 2.0 mg/kg/injection, schedule: Q01DX005 (ip), vehicle: saline, evaluated on day 45) was 94 and 122 % of control. The T/C (dose: 2.0 mg/kg/injection, schedule: Q01DX005 (ip), vehicle: saline, evaluated on day 60) was 98 and 105 % of control, the T/C (dose: 4.0 mg/kg/injection, schedule: Q01DX005 (ip), vehicle: Klucel (hydroxypropylcellulose) (HPC)) was 109 (2×), 114, 131 % of control and the T/C (dose: 4.0 mg/kg/injection, schedule: Q01DX005 (ip), vehicle: saline, evaluated on day 45) was 112 and 129 % of control. For the same compound, the T/C (dose: 4.0 mg/kg/injection, schedule: Q01DX005 (ip), vehicle: saline, evaluated on day 60) was 103, 107, 122 % of control, the T/C [1] was 118 [9 of 10 alive], 119, 151 % of control and the survivor count [1] was 10 of 10. For the same compound, the T/C (dose: 8.0 mg/kg/injection, schedule: Q01DX005 (ip), vehicle: saline, evaluated on day 45) was 124 and 130 % of control, the T/C (dose: 8.0 mg/kg/injection, schedule: Q01DX005 (ip), vehicle: saline, evaluated on day 60) was 117 and 118 % of control [9 of 10 alive] and the survivor count (dose: 8.0 mg/kg/injection, schedule: Q01DX005 (ip), vehicle: saline) was 9 of 10. For the same compound, the survivor count [2] was 8 of 10, 9 of 10, 10 of 10, the T/C [3] was 143 % of control and the survivor count [3] was 10 of 10 (2×). For the same compound, the T/C (dose: 16.0 mg/kg/injection, schedule: Q01DX005 (oral), vehicle: saline) was 135 % of control, the survivor count (dose: 32.0 mg/kg/injection, schedule: Q01DX005 (ip), vehicle: saline) was 8 of 10 and the survivor count [4] was 2 of 10. For the same compound, the survivor count (dose: 128.0 mg/kg/injection, schedule: Q01DX005 (oral), vehicle: saline) was 8 of 10 and the survivor count (dose: 256.0 mg/kg/injection, schedule: Q01DX005 (oral), vehicle: saline) was 7 of 10.

With `CC(=O)CC(c1ccccc1)c1c(O)c2ccccc2oc1=O` (stereo unspecified) the survivor count (dose: 0.72 mg/kg/injection, schedule: Q01DX005 (ip), vehicle: saline) was 6 of 10.

`CCCN(C)C(=O)N(CCCl)N=O` was tested, and the T/C [5] was 93 [3 of 10 alive], 95 [4 of 10 alive], 99 [3 of 10 alive], 109, 121, 122, 123, 134, 152 % of control, the T/C [6] was 99 [4 of 10 alive], 105 [7 of 10 alive], 109, 112 [9 of 10 alive], 116 [9 of 10 alive], 120 [6 of 10 alive], 138, 139 [9 of 10 alive], 147 % of control and the T/C [7] was 94 [4 of 10 alive], 101 [4 of 10 alive], 109 [6 of 10 alive], 112 [9 of 10 alive], 126, 137, 139 [9 of 10 alive], 165, 195 % of control. For the same compound, the T/C (dose: 80.0 mg/kg/injection, schedule: Q01DX001 (ip), vehicle: Klucel (hydroxypropylcellulose) (HPC)) was 96 [3 of 10 alive], 104, 106 [6 of 10 alive], 117 [9 of 10 alive], 130 [9 of 10 alive], 143 [8 of 10 alive], 146 [9 of 10 alive], 160, 198 % of control, the T/C [8] was 86 [8 of 10 alive], 99 [6 of 10 alive], 103 [5 of 10 alive], 149, 179 % of control and the survivor count [8] was 2 of 10, 4 of 10, 7 of 10. For the same compound, the survivor count (dose: 250.0 mg/kg/injection, schedule: Q01DX001 (ip), vehicle: other) was 6 of 10, the T/C [9] was 87 [1 of 10 alive] and 94 % of control [3 of 10 alive] and the survivor count [9] was 0 of 10, 5 of 10, 8 of 10.

In the case of `O=[N+]([O-])O.[Ga]`, the survivor count [4] is reported as 10 of 10, the survivor count (dose: 128.0 mg/kg/injection, schedule: Q01DX005 (ip), vehicle: saline) is reported as 10 of 10 and the survivor count (dose: 256.0 mg/kg/injection, schedule: Q01DX005 (ip), vehicle: saline) is reported as 8 of 10.

`CC(CN1CC(=O)NC(=O)C1)N1CC(=O)NC(=O)C1` (stereo unspecified) was tested, and the survivor count (dose: 8.0 mg/kg/injection, schedule: Q01DX001 (ip), vehicle: Klucel (hydroxypropylcellulose) (HPC)) was 10 of 10, the T/C (dose: 16.0 mg/kg/injection, schedule: Q01DX001 (ip), vehicle: Klucel (hydroxypropylcellulose) (HPC)) was 125 % of control and the survivor count [2] was 7 of 10. For the same compound, the survivor count (dose: 32.0 mg/kg/injection, schedule: Q01DX005 (ip), vehicle: Klucel (hydroxypropylcellulose) (HPC)) was 10 of 10, the survivor count (dose: 64.0 mg/kg/injection, schedule: Q01DX005 (ip), vehicle: Klucel (hydroxypropylcellulose) (HPC)) was 8 of 10 and the T/C (dose: 128.0 mg/kg/injection, schedule: Q01DX001 (ip), vehicle: Klucel (hydroxypropylcellulose) (HPC)) was 127 % of control. For the same compound, the survivor count (dose: 128.0 mg/kg/injection, schedule: Q01DX005 (ip), vehicle: Klucel (hydroxypropylcellulose) (HPC)) was 7 of 10 and 9 of 10.

With `CCC1CC2CN(CCc3c([nH]c4ccccc34)C(C(=O)OC)(c3cc4c(cc3OC)N(C)C3C(O)(C(=O)OC)C(OC(C)=O)C5(CC)C=CCN6CCC43C65)C2)C1` (stereo unspecified) the survivor count (dose: 3.2 mg/kg/injection, schedule: Q01DX005 (ip), vehicle: Klucel (hydroxypropylcellulose) (HPC)) was 3 of 6, the survivor count (dose: 6.4 mg/kg/injection, schedule: Q01DX005 (ip), vehicle: Klucel (hydroxypropylcellulose) (HPC)) was 0 of 6 and the survivor count (dose: 12.8 mg/kg/injection, schedule: Q01DX005 (ip), vehicle: Klucel (hydroxypropylcellulose) (HPC)) was 0 of 6.

For `ClC1C(Cl)C(Cl)C(Cl)C(Cl)C1Cl` (stereo unspecified), the survivor count (dose: 720.0 mg/kg/injection, schedule: Q01DX005 (ip), vehicle: saline with Tween-80) was 8 of 10 and 10 of 10.

With `[N-]=[N+]=CC(=O)CCC(N)C(=O)O` (stereo unspecified) the survivor count (dose: 0.05 mg/kg/injection, schedule: Q01DX005 (ip), vehicle: saline) was 9 of 9, the survivor count (dose: 0.1 mg/kg/injection, schedule: Q01DX005 (ip), vehicle: saline) was 10 of 10 and the survivor count (dose: 0.2 mg/kg/injection, schedule: Q01DX005 (ip), vehicle: saline) was 9 of 10. The survivor count (dose: 0.4 mg/kg/injection, schedule: Q01DX005 (ip), vehicle: saline) was 8 of 10 and 10 of 10 and the survivor count (dose: 0.8 mg/kg/injection, schedule: Q01DX005 (ip), vehicle: saline) was 8 of 10.

`Nc1ccc(C(=O)O)c(O)c1` was tested, and the survivor count (dose: 540.0 mg/kg/injection, schedule: Q01DX005 (ip), vehicle: saline with Tween-80) was 4 of 10 and the survivor count (dose: 1080.0 mg/kg/injection, schedule: Q01DX005 (ip), vehicle: saline with Tween-80) was 0 of 10.

With `CN(N=O)C(N)=O` the T/C [5] was 139 % of control, the T/C [6] was 134 % of control and the T/C [7] was 132 % of control. For the same compound, the survivor count [8] was 8 of 10.
